# Experimental data from the supplement of paper PMC8256030.
# The other results are listed elsewhere or left out. Repeats in this data set agree poorly, so a single value says little.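 HEK293T cells were given each compound shortly before transfection with a reporter in which red mCherry is followed by the SARS-CoV-2 frameshift element and then GFP in the −1 frame, so GFP appears only after frameshifting.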
# Experiments:
# [1] = system: SARS-CoV-2 -1 PRF reporter mCherry-FSE-GFP(-1); assay: mCherry (red) intensity as percent of control; higher = higher upstream reporter expression; settings: 10 µM; 24 h; HEK293T
# [2] = system: SARS-CoV-2 -1 PRF reporter mCherry-FSE-GFP(-1); assay: percent effect, decrease of GFP/mCherry ratio (-1 PRF reporter) relative to controls; higher = stronger frameshift inhibition; settings: 10 µM; 24 h; HEK293T
SMILES,mCherry [1],percent effect [2]
CCOc1nc2cccc(C(=O)O)c2n1Cc1ccc(-c2ccccc2-c2nn[nH]n2)cc1,85.3%,-4.13%
CO[C@@]1(NC(=O)Cc2cccs2)C(=O)N2C(C(=O)O)=C(COC(N)=O)CS[C@@H]21 [cefoxitin],79%,-14.5%
CC(C)C(=O)c1c(C(C)C)nn2ccccc12 [ibudilast],92.1%,-2.75%
OCc1ccccc1O[C@@H]1O[C@H](CO)[C@@H](O)[C@H](O)[C@H]1O,91.1%,-2.57%
CCC1=C[C@@H]2CN(C1)Cc1c([nH]c3ccccc13)[C@@](C(=O)OC)(c1cc3c(cc1OC)N(C)[C@H]1[C@@](O)(C(=O)OC)[C@H](OC(C)=O)[C@]4(CC)C=CCN5CC[C@]31[C@@H]54)C2 [vinorelbine],43.5%,-12.5%
CN(CC(=O)O)C(=N)N [Creatine],109%,0.458%
CN1CCN(C2=Nc3ccccc3Oc3ccc(Cl)cc32)CC1,131%,-10.5%
C/C=C\C=C\[C@@H]1O[C@](O)([C@H](CC)C(=O)NC/C=C/C=C(\C)[C@@H](OC)[C@H](C)[C@@H]2O[C@H](/C=C/C=C/C=C(\C)C(=O)c3c(O)cc[nH]c3=O)[C@H](O)[C@@H]2O)[C@H](O)[C@H](O)C1(C)C [mocimycin],107%,-6.01%
CN1CCCC(CC2c3ccccc3Sc3ccccc32)C1 (centres undefined) [metixene],128%,-8.29%
C[C@H](NC(=O)[C@H](CC(=O)O)NC(=O)CNC(=O)CNC(=O)[C@H](C)NC(=O)[C@@H](N)Cc1c[nH]c2ccccc12)C(=O)N[C@@H](CO)C(=O)NCC(=O)N[C@@H](CCC(=O)O)C(=O)O [emideltide],90%,-11.5%
O=C(O)CCNC(=O)c1ccc(/N=N/c2ccc(O)c(C(=O)O)c2)cc1 [balsalazide],109%,-5.07%
CC1(C)S[C@@H]2[C@H](N3C(=O)[C@@H](c4ccccc4)NC3(C)C)C(=O)N2[C@H]1C(=O)O [Hetacillin],103%,-1.71%
c1cnc2cc3c(cc2n1)[C@@H]1CNC[C@H]3C1 [varenicline],105%,0.345%
NC1CCN(c2nc3c(cc2F)c(=O)c(C(=O)O)cn3-c2ccc(F)cc2F)C1 (centres undefined) [tosufloxacin],91%,-1.7%
Cc1ccc2c(Cl)cc(Cl)c(O)c2n1 [chlorquinaldol],113%,-3.86%
CC(C)(C)C(=O)OCOC(=O)[C@@H]1N2C(=O)[C@@H](/N=C/N3CCCCCC3)[C@H]2SC1(C)C [pivmecillinam],66.2%,-5.56%

# Whole records, quoted from the list. Values in the order: mCherry [1] | percent effect [2]
# CCC1=C[C@@H]2CN(C1)Cc1c([nH]c3ccccc13)[C@@](C(=O)OC)(c1cc3c(cc1OC)N(C)[C@H]1[C@@](O)(C(=O)OC)[C@H](OC(C)=O)[C@]4(CC)C=CCN5CC[C@]31[C@@H]54)C2 [vinorelbine] in the list: 43.5% | -12.5%
# CCOc1nc2cccc(C(=O)O)c2n1Cc1ccc(-c2ccccc2-c2nn[nH]n2)cc1 in the list: 85.3% | -4.13%

# More entries

SMILES,mCherry [1],percent effect [2]
COc1cc(/C=C/C(N)=O)cc(OC)c1OC,88.9%,-8.93%
COc1ccc2c(O[C@@H]3C[C@H]4C(=O)N[C@]5(C(=O)O)C[C@@H]5/C=C\CCCCC[C@H](NC(=O)OC5CCCC5)C(=O)N4C3)cc(-c3csc(NC(=O)C(C)C)n3)nc2c1C,42.1%,-1.75%
O=C(Nc1cccc(C2=NCCN2)c1)Nc1cccc(C2=NCCN2)c1 [imidocarb],94.8%,-3.01%
CC(=O)Nc1c(I)c(NC(C)=O)c(I)c(C(=O)O)c1I [sodium amidotrizoate],124%,-0.577%
CC(=O)N=c1sc(S(N)(=O)=O)nn1C,117%,-0.685%
Nc1nc(=O)c(Br)c(-c2ccccc2)[nH]1 [bropirimine],134%,9.55%
Nc1ncnc(Nc2ccccc2)n1 [amanozine],109%,-1.63%
CC1(C)S[C@@H]2[C@H](NC(=O)[C@H](N)c3ccccc3)C(=O)N2[C@H]1C(=O)O,85.6%,0.634%
CC(C)NC(=N)NC(=N)Nc1ccc(Cl)cc1,104%,2.31%
CCOC(=O)C1=C(C)NC(C)=C(C(=O)OCC)C1c1ccccc1/C=C/C(=O)OC(C)(C)C [lacidipine],101%,-1.5%
CCCOc1cc(N)ccc1C(=O)OCCN(CC)CC,111%,-1.18%
O=P(O)(O)C(Cl)(Cl)P(=O)(O)O [clodronic acid],121%,-3.68%
CN(C)CCC=C1c2ccccc2C=Cc2ccccc21,104%,-2.35%
CC(C)(O)c1ccccc1CC[C@@H](SCC1(CC(=O)O)CC1)c1cccc(/C=C/c2ccc3ccc(Cl)cc3n2)c1,131%,0.512%
CC(C)COC(=O)c1ccc(N)cc1 [isobutamben],82.3%,-1.83%
CO/N=C(\C(=O)N[C@@H]1C(=O)N2C(C(=O)O)=C(COC(C)=O)CS[C@H]12)c1ccco1 [cefuracetime],85.6%,1.16%
